US11918658B2, “Hydrogels and related compositions and methods” (Massachusetts Institute of Technology, priority 2017, dated 2024)
At least one structure is not confirmed: it was looked up by name or label, or the drawing left a doubt.

Assays:
[1] = Fenofibrate crystal size in hydrogels from DSC thermograms; assay type: physicochemical; conditions: loaded in ethyl acetate, after drying; DSC and DLS
[2] = XRD polymorph stability on storage; assay type: physicochemical; conditions: nano-templated hydrogel, roughly 22° C. and 40% relative humidity, 30 days

With CC(C)OC(=O)C(C)(C)Oc1ccc(C(=O)c2ccc(Cl)cc2)cc1 [fenofibrate] the “crystal size of fenofibrate formed in PEGDA/BPEGA hydrogel” value [1] was 40-60 nm and the “crystal structure (polymorph) after storage” value [2] was “substantially unchanged”.
